One test concerns the target T1, GST-hBin2 N-BAR (human) (UniProt Q9UBW5).
T1 sequence: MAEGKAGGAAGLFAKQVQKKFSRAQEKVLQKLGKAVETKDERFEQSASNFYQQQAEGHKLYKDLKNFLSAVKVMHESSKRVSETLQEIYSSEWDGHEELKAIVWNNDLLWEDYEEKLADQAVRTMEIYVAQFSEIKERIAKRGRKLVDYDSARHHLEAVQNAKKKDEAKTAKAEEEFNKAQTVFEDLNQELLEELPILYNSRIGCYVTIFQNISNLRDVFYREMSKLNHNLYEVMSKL
Kind of test: pull-down; 10 µg GST fusion or GST on glutathione beads with rising amounts of purified prey, 60 min; 20 mM HEPES pH 7.5, 150 mM NaCl, 1 mM DTT, 0.1% Triton X-100; SDS-PAGE, Coomassie; both purified.

Sequences of proteins named here, by UniProt entry; tags and fusion partners are left off.
UniProt O35179: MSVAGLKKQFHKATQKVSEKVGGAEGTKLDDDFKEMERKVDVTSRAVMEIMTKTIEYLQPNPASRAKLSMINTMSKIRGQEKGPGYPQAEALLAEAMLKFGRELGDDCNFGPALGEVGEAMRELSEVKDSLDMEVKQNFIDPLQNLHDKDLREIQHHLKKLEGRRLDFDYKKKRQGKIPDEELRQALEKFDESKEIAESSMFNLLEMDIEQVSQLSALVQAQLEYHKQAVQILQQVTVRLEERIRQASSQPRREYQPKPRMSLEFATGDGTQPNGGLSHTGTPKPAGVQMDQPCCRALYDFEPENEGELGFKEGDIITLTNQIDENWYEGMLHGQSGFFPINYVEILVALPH

Test [1] has as its target Human Bin2 N-BAR domain (1-238) (human) (UniProt Q9UBW5). The test can be described thus: SEC; gel filtration of purified hBin2 N-BAR after GST cleavage and ion exchange; single peak; both purified.

No constants are given. Whether binding was seen depends on the method and setting. Some entries that bind do so weakly or less than the wild type. For some assays here: Where a sequence is shown, tags or fusion partners need not be part of it.

As for “Full-length rat Endophilin A1 (from UniProt O35179 1-352)”, the binding result in the test with GST-hBin2 N-BAR (human) is “no binding (tested: up to 50 µg rat Endophilin A1)”.

B1: Human Bin2 N-BAR domain (1-238) (domain or fragment, UniProt Q9UBW5 1-238, looked up)
chain: MAEGKAGGAAGLFAKQVQKKFSRAQEKVLQKLGKAVETKDERFEQSASNFYQQQAEGHKLYKDLKNFLSAVKVMHESSKRVSETLQEIYSSEWDGHEELKAIVWNNDLLWEDYEEKLADQAVRTMEIYVAQFSEIKERIAKRGRKLVDYDSARHHLEAVQNAKKKDEAKTAKAEEEFNKAQTVFEDLNQELLEELPILYNSRIGCYVTIFQNISNLRDVFYREMSKLNHNLYEVMSKL
notes: Bridging integrator-2 (Bin2, BRAP1), human, residues 1-238; also called hBin2 N-BAR; source: E. coli DH5α, purified (glutathione sepharose, thrombin cleavage, HiTrap Q, gel filtration)
As to B1, the binding result in test [1] is listed as “binds”.
